Results are given in words; binding and its absence hold for the method and conditions named. In cells and extracts the contact can be indirect. Some results given as binding are weak or reduced against the parent protein; the word gives no strength. Tags and fused reporters may be left off the sequences shown.
Biological target: T1, RsdA-YFP^N-terminal (Pestalotiopsis fici) (UniProt W3WX91)
T1 sequence: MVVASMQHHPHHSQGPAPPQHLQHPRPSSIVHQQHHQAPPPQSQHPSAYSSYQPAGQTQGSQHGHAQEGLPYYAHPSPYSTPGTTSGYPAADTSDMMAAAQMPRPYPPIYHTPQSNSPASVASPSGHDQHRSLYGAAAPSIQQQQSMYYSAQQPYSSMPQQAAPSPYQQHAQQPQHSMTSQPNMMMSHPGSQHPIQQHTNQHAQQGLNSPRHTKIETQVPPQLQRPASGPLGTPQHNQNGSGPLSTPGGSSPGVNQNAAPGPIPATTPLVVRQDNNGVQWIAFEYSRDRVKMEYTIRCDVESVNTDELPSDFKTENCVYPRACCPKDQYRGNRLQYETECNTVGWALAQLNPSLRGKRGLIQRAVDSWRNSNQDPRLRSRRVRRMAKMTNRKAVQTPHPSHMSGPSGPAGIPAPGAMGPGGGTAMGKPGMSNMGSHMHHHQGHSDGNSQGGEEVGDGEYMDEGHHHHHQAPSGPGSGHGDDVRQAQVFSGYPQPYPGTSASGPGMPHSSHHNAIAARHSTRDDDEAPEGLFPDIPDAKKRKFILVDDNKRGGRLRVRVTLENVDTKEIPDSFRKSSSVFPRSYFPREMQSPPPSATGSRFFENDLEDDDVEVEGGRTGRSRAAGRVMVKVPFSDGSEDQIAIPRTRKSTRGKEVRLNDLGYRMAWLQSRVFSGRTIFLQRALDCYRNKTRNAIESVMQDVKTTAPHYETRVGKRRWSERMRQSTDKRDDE
Experiment: split reporter; BiFC in P. fici (strain TYSZL34 with RsdA-NYFP and CsdA-CYFP); mycelia fixed, DAPI stained, fluorescence microscopy; strains with a single construct as negative controls

B1: GST-CsdA (PFICI_10709), recombinant (natural protein, Pestalotiopsis fici, UniProt W3WSJ8 1-634, looked up)
chain: MSTVPPQPPHFDRYVVIHVATTCDEHGVYVTKDSAEVIELGWIELDAKSLEELHRESVLVKPINTPITPLCTSLTTLTWEHVRNAGTFRDAINRFDAFASEHLTNQNLDFVFVTLDAWDLRVQLPREARDKAVVLPPYLQHSRTFDLRTEYQRWQQHHPESLPFGPSMLSNICAALEVEPVQSSAPIKHNLPFHLQALAPASPRRAMEEAITLARVLRGLIRKSQPAHEHPDVLTRPMDARADVRAFLSERSKVLHMSGLPHDTTQSELESWFTQFGGRPIAFWTLRTPEQHKPTGTGFAVFSSHEEAAESLCMNGRALNEKAIEVSPSSSRVLDRAAEILTPFPPSKNRPRPGDWTCPSCGFSNFQRRTACFRCSFPAVGAGGPQNEMSSYGGGGGGSGGYGYGAPPMMPPPHHGGHHHHHGGMGHGGGRMGGSGVVPFRAGDWKCGNEVCGYHNFAKNVCCLRCGASRAGAAVVADSGYPSPMDSGSNYGMGSHSVGGTPGPGPYASAGGPFGGAGGGYGQHFGGPPSTYALPSGIGGGAAPYPSALNTHIGGPAPGSHSAGPFDSRAAEAAFQSAGNGPASAGPSNNFFGSQAENDPFAFLSTGIGGLTVSGDARQNGSGAGGPQSKSPAA
notes: open reading frame amplified from P. fici cDNA; CsdA said to contain 730 amino acids; GST-CsdA printed as 93.6 kDa; Printed as GST-CsdA; vector pGEX-4T (GST-tag); also called PfCsdA; GST-CsdA protein; source: E. coli BL21 (plasmid pYSZL6, pGEX-4T), purified (GST-tag resin)
Which binding does the source give for B1 here?
The binding was “binds”.

Reference: paper PMC10645843, “Fungal secondary metabolism is governed by an RNA-binding protein CsdA/RsdA complex” (Nature Communications, 2023)
